The target in the assay is T1, FLAG-tagged wild type Dmp53 (UAS-Dmp53-FLAG-myc) (D. melanogaster) (UniProt Q9N6D8).
T1 sequence: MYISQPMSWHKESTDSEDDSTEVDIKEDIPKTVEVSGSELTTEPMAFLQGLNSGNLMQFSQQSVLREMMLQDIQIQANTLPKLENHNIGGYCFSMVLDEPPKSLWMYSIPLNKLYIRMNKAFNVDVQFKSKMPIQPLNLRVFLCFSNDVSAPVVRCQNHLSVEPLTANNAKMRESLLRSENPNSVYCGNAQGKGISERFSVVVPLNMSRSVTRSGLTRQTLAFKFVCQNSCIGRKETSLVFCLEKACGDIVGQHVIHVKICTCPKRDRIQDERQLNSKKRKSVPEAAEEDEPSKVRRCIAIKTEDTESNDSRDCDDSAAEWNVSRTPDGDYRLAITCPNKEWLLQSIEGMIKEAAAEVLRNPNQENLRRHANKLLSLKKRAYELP
In words: co-IP; head extracts (about 75 heads, 500 ug protein) of females expressing Dmp53-FLAG-myc for ten days; NP-40 lysis buffer (1% NP-40, 20 mM Tris pH 8.0, 137 mM NaCl, 2 mM EDTA, 10% glycerol); anti-FLAG M2 overnight at 4°C, Protein G-Sepharose; Western blot with anti-dSir2.

No constants are given. Whether binding was seen depends on the method and setting. In cells and extracts the contact can be indirect. Some entries that bind do so weakly or less than the wild type. Where a sequence is shown, tags or fusion partners need not be part of it.

B1: endogenous dSir2 (protein, UniProt Q9VK34 1-823)
chain: MMENYEEIRLGHIRSKDLGNQVPDTTQFYPPTKFDFGAEILASTSTEAEAEAEATATTTEPATSELAGKANGEIKTKTLAAREEQEIGANLEHKTKNPTKSMGEDEDDEEEEEEDDEEEEEDDEEGITGTSNEDEDSSSNCSSSVEPDWKLRWLQREFYTGRVPRQVIASIMPHFATGLAGDTDDSVLWDYLAHLLNEPKRRNKLASVNTFDDVISLVKKSQKIIVLTGAGVSVSCGIPDFRSTNGIYARLAHDFPDLPDPQAMFDINYFKRDPRPFYKFAREIYPGEFQPSPCHRFIKMLETKGKLLRNYTQNIDTLERVAGIQRVIECHGSFSTASCTKCRFKCNADALRADIFAQRIPVCPQCQPNKEQSVDASVAVTEEELRQLVENGIMKPDIVFFGEGLPDEYHTVMATDKDVCDLLIVIGSSLKVRPVAHIPSSIPATVPQILINREQLHHLKFDVELLGDSDVIINQICHRLSDNDDCWRQLCCDESVLTESKELMPPEHSNHHLHHHLLHHRHCSSESERQSQLDTDTQSIKSNSSADYILGSAGTCSDSGFESSTFSCGKRSTAAEAAAIERIKTDILVELNETTALSCDRLGLEGPQTTVESYRHLSIDSSKDSGIEQCDNEATPSYVRPSNLVQETKTVAPSLTPIPQQRGKRQTAAERLQPGTFYSHTNNYSYVFPGAQVFWDNDYSDDDDEEEERSHNRHSDLFGNVGHNYKDDDEDACDLNAVPLSPLLPPSLEAHIVTDIVNGSNEPLPNSSPGQKRTACIIEQQPTPAIETEIPPLKKRRPSEENKQQTQIERSEESPPPGQLAAV
Take B1: the binding result is recorded as “binds”.

Values taken from article PMC2765060.
